In PubChem BioAssay AID1794844 (National Center for Advancing Translational Sciences (NCATS), 2023):
Screen size: about 2,800 compounds; fewer than 10 were called active. Inconclusive results (about 7%) are left out. The call rests on the fitted dose curve; in most records, active means well fitted inhibition curve with a large enough effect; inconclusive means small, poorly fitted or top-dose-only effect; inactive means no such curve, though single readings can be large or run the other way. The list shows a part of the results.

Protein sequences, listed by entry. Tags and fused reporters are not part of them. Lines headed by an entry give the natural chain unless they say otherwise; changes in a name come on top.
UniProt C7C422: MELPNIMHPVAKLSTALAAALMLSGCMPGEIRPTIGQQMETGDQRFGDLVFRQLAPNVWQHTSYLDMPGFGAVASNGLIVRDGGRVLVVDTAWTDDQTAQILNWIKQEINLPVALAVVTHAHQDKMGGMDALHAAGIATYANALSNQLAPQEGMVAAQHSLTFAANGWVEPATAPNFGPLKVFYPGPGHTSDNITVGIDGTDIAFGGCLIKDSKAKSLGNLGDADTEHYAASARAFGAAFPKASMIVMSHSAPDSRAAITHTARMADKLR

These compounds were tested against Metallo-beta-lactamase type 2 (Klebsiella pneumoniae) (UniProt C7C422) (assay: qHTS to identify inhibitors of the New Delhi Metallo-beta-lactamase (NDM): Nitrocefin screen against the machine-based learning selections.). Settings: NDM-1 enzyme, nitrocefin hydrolysis, absorbance 485 nm; activity, negative = inhibition: at the top concentration.
Description: Assay Submitter (PI): James Inglese Ph.D., Patricia Dranchak Ph.D., Mahesh Aitha Ph.D. Assay Development and Screening Technology Laboratory (ADST) National Center for Advancing Translational Sciences (NCATS), Rockville, MD National Institute of Health (NIH), Bethesda, Maryland The metallo-beta-lactamases (MBL) are a main antibiotic resistance mechanism evolved by bacteria. There is an urgent clinical need for MBL inhibitors to mitigate this growing threat. To support a machine-based learning study, qHTS has been used to experimentally test inhibitors identified by prediction tools.
PROTOCOL TABLE (as described by Inglese et al., 2007) SEQUENCE No. (e.g., 1, 2, 3, etc.); […] (e.g., enzyme, Incubation, Reagent, etc.); VALUE; DESCRIPTION Primary Screen 1; NDM-1; 4 uL of 3 nM enzyme [2 nM final] in 50 mM HEPES (pH 7.0), 1 uM […], 0.01% Tween20; Use BioRaptr to dispense into two sets of Aurora black, clear bottom high base 1536-well plates 2; Compounds; 23 nL; Use Pin Tool (Wako) to transfer DMSO control and library compounds in DMSO 3; Incubate; >30 min 4a; Reagent; 2 uL of 50 uM nitrocefin [16.7 uM final] to one set of assay plates 4b; Reagent; 2 uL of 150 uM meropenem [50 uM final] to second set of assay plates 5a; Incubate; 15 min 5b; Incubate; 30 min 6a; Detector; Absorbance at 485 nm (bandwidth = 5 nm, 25 flashes/well) on Tecan Infinity 6b; Detector; Absorbance at 300 nm (bandwidth = 5 nm, 25 flashes/well) on Tecan Infinity NOTES (numbers refer to sequence above) 1; Column 1 of each plate received assay buffer without enzyme and columns 2-48 received enzyme for a final assay concentration of 2 nM. 2; Control plate contained DMSO in columns 1, 2, 3, and 4. 3; Compound interaction with enzyme. 4; Nitrocefin and meropenem substrates were prepared in the same assay buffer as step 1 for a final assay concentration of 16.7 uM and 50 uM, respectively, and added to all wells across respective sets of assay plates. 5; Default reader settings were applied for absorbance read at 485 nm (nitrocefin) or 300 nm (meropenem), bandwidth = 5 nm, 25 flashes/well. References: Inglese J, Shamu CE, Guy RK. 2007. Reporting data from high-throughput screening of small-molecule libraries. Nat Chem Biol. doi:10.1038/nchembio0807-438 Yasgar A, Shinn P, Jadhav A, Auld D, Michael S, Zheng W, Austin CP, Inglese J, Simeonov A. 2008. Compound Management for Quantitative High-Throughput Screening. J Lab Autom 13:79 - 89. doi:10.1016/j.jala.2007.12.004
Further: % of control where 0% means no effect.

activity, negative = inhibition, inactive:
O=C(Cc1ccccn1)N1CCC(N2CC3CCCN3C2=O)CC1 (stereo not given) -0.101% [at 57.5 µM]
Cc1cc(C)c(CNC(=O)c2nc(-c3cccnc3)cc3[nH]ccc23)c(=O)[nH]1 -12.9% [at 57.5 µM]
CC(C)c1noc(-c2cccn3c(CNC(=O)c4cccc5[nH]ccc45)nnc23)n1 0.533%
OC1(CN2CCCCC2)CCN(c2nc3ccccc3s2)C1 (stereo not given) 3.39%
O=C1NCCC[C@@H]1NC(=O)[C@H]1CN(C(=O)c2cccc(F)c2)CCN1C(=O)c1cccs1 -4.39%
O=C(O)c1cc(Br)cc(S(=O)(=O)NCC2CCCO2)c1 (stereo not given) -4.23%
O=C1N[C@@H]2CCN(C(=O)c3ccc(-c4ccccc4)cc3)[C@@H]2C(=O)N1c1ccc(F)cc1 -7.85% [at 57.5 µM]
CC(C)CCN1CCc2[nH]nc(C(=O)N(C)C)c2C1 -5.92%
O=c1c2nc(-c3ccc(O)c(F)c3)ccc2ncn1Cc1ccccn1 2.13% [at 57.5 µM]
CCc1nc(NCCc2cc(OC)cc(OC)c2)c2cnn(C)c2n1 -3.8%
O=C(C[C@@H]1O[C@H](CNC(=O)c2ccccc2)[C@@H](O)[C@H]1O)NC1CC1 -6.38% [at 57.5 µM]
OCc1cccc(-c2ccc3ncc(Nc4ccccc4F)n3n2)c1 -7.54% [at 57.5 µM]
COc1ccc(-c2noc([C@@H]3C[C@@H](O)CN3Cc3ncc[nH]3)n2)cc1 1.33% [at 57.5 µM]
Cc1nc(C(=O)N2CCC(c3nnc(CN4CCCC4)n3C)CC2)cs1 -8.34%
c1cncc(Nc2cc3c(cn2)CN(Cc2ccc4[nH]ccc4c2)CCN3)c1 6.75% [at 57.5 µM]
F[C@@H]1CN(Cc2cccnc2)C[C@@H]1OCc1nc2ccc(C(F)(F)F)cc2[nH]1 -5.95% [at 57.5 µM]
COc1ccc(CNC(=O)C[C@@H]2CCNC[C@@H]2Cc2cc(COc3ccccc3)on2)cc1 8.54%
O=C(c1ccccc1-c1ncn[nH]1)N1CCn2nc(Cc3ccccc3)cc2C1 3.73%
COc1ccccc1CNC(=O)C[C@@H]1[C@H](O)CCC2[C@](C)(CO)[C@H](OC(=O)NC(C)C)CC[C@]21C (stereo not given in full) -1.64%
C[C@@H]1CN(C(=O)CCN(C)S(C)(=O)=O)C[C@@]1(O)C1CC1 1.3%
COc1ccc(NC(=O)C2(C)CCCc3cnc(Nc4cccnc4)nc32)cc1 (stereo not given) 5.21% [at 57.5 µM]
O=C(Nc1ncc(-c2ccccc2)c2c1OCC2)c1cn[nH]c1 -1.33% [at 57.5 µM]
NCCC[C@@H](N)C(=O)N1CCCC(c2ccccc2)(c2ccccc2)C1 21.8%
CC1(C)[C@H](Cc2cc(CCO)on2)C[C@@H]1N(S(C)(=O)=O)S(C)(=O)=O -0.982% [at 57.5 µM]
CCOC(=O)CCNC(=O)N1CCC(Oc2ncccc2C(=O)N2CCCCC2)C1 (stereo not given) 2.5%
Fc1ccc(CNc2cc3c(cn2)NCCN(Cc2ccccc2)C3)cc1 0.152% [at 57.5 µM]
COc1ccc2nc3n(c2c1)[C@@H](CNC(=O)c1ccc(F)cc1)COC3 1.28% [at 57.5 µM]
COCCNC(=O)c1ccc2c(c1)N(C)C(CC(=O)N1CCCCC1)CO2 (stereo not given) -0.115%
COc1ccc([C@H]2C[C@@H](O)[C@@H](O)[C@@H]2NCc2ccc(OC)nc2)cc1 -2% [at 57.5 µM]
Oc1cccc(CN(Cc2ccsc2)Cc2ccco2)c1 -0.858%
COC(=O)c1cc2n(n1)CCCN(C(=O)c1cc(CC(C)C)no1)C2 -1.33%
O=C(NCc1c[nH]c2ncccc12)c1ccccn1 2.45% [at 57.5 µM]
Cc1nn(-c2ccccc2Cl)c(=O)n1CC(=O)N(C)C(C)c1ccon1 (stereo not given) 0.444%
NS(=O)(=O)c1ccc(CNc2nccc(-c3cccnc3)n2)cc1 -0.0944%
Cc1cc(C(=O)N2CC[C@H](NS(=O)(=O)c3cccs3)C[C@H]2C(=O)N[C@H](C)C(N)=O)n(C)n1 -6.71%
COCc1cc(C[C@@H]2CC[C@H](O)[C@@H](CNC(=O)C3CCCC3)O2)no1 -10.6% [at 57.5 µM]
O[C@H]1CC[C@@H](Cc2cc(COc3ccccc3)on2)O[C@@H]1CN(CC1CC1)CC1CC1 4.07% [at 57.5 µM]
CC(C)NS(=O)(=O)c1cc(C(=O)O)cc(-c2cccc3c2OCC3)c1 7.31%
CCCN(CC1CC1)C(=O)C1CCC(=O)N(Cc2ccc(Cl)cc2)C1 (stereo not given) 2.23%
CN(C)Cc1cn(C[C@H]2C[C@@H](NC(=O)c3nc4ccccc4s3)[C@H](O)[C@@H]2O)nn1 -6.95%
Cc1cccc2c1nc1n2[C@@H](CNCc2ccc(C#N)cc2)COC1 0.835% [at 57.5 µM]
Fc1ccccc1CN1CCNc2cc(Nc3cccnc3)ncc2C1 6.12% [at 57.5 µM]
Fc1ccc2nc([C@H]3CCN(C4CCC4)C3)[nH]c2c1 14% [at 76.7 µM]
O=c1[nH]c(-c2ccc(F)cc2)nc2c1CCN(S(=O)(=O)c1cccs1)C2 -13.6%
Nc1nc(C2CC(O)C2)cc(N2CCCN(Cc3ccccn3)CC2)n1 (stereo not given) -3.26%
CCO[C@H]1CN(C(=O)Cc2ccc3nc(C)[nH]c3c2)C[C@@H]1O 3.02%
Cc1noc(C)c1[S+](=O)([O-])N1CCC2(C1)N=C(c1cccnc1)C(=O)N2 (stereo not given) -6.07%
COCc1ccc(CN[C@H]2C[C@@H](Cc3cc(CN4CCCCC4)on3)C2(C)C)o1 -0.793% [at 57.5 µM]
CNC(=O)C1CCCN(Cc2nc(-c3cccc(Oc4ccccc4)c3)oc2C)C1 (stereo not given) -2.13%
Oc1cccc(Nc2cnc3ccc(-c4ccc(F)cc4)nn23)c1 7.06% [at 57.5 µM]
O=C(NC[C@H]1O[C@@H]2C[C@@H](CC(=O)N3CCC(F)(F)C3)O[C@@H]2[C@@H]1O)Nc1cccc(Cl)c1 -0.802%
COc1ccc(CNC(=O)C[C@@H]2C[C@H]3O[C@H](CNC(=O)NCc4ccccc4)[C@@H](O)[C@H]3O2)cc1 -0.956%
NC(=O)c1cccc(-c2cc3c(cn2)CN(Cc2ccncc2)CCN3)c1 -0.63% [at 57.5 µM]
O=c1c2nc(Nc3ccc(C(F)(F)F)cc3)ccc2ncn1Cc1ccccn1 2.24% [at 57.5 µM]
CCN(CC)C(=O)C(C)[C@@H]1CC[C@@]2(C)Cc3sc(NC(=O)C4CC4)nc3[C@@H](C)[C@@H]2[C@H]1O (stereo not given in full) 1.47%
Cc1ccc(NC(=O)c2ccccc2)c(NC(=O)C2CCN(CC(N)=O)CC2)c1 9%
OC[C@H]1CCN(c2ccnc3c(C(F)(F)F)cccc23)C[C@H]1O 2.12%
CC(=O)N1CCN(c2cc(-c3noc([C@@H]4CCCN4Cc4ccc(N(C)C)cc4)n3)ccn2)CC1 0.0299%
NC(=O)[C@@H](Cc1c[nH]c2ccccc12)NC(=O)[C@@H]1[C@@H](NC(=O)NC2CCCCC2)CCN1C(=O)c1cnccn1 -0.0947%
O=C(c1cccnc1)N1CC[C@H]2COC(=O)N2c2cc(F)ccc2C1 129% [at 57.5 µM]
Cc1cccc(-c2cnc3n[nH]c(-c4ccccc4)c3n2)c1 3.91% [at 76.7 µM]
O=C(O)CN1CCNc2nc(CNc3ccc(F)cc3)n(Cc3ccccc3)c2C1=O 1% [at 57.5 µM]
Cc1ccc(F)cc1S(=O)(=O)N1CCn2c(n[nH]c2=O)C1 -3.37%
Cc1ccccc1-c1cnc2[nH]cc(CC(=O)NCc3ccccc3)c2c1 7.78% [at 57.5 µM]
Cc1ccc(S(=O)(=O)NC[C@H]2O[C@H](Cc3cc(-c4cccc(O)c4)on3)CC[C@@H]2O)cc1 -4.07%
CC(=O)c1[nH]c(C)c(C(=O)N2CCCC(O)(CNC(=O)N(C)C)CC2)c1C (stereo not given) 1.09%
Oc1ccccc1CN1CC(CNc2cccnc2)C2(C1)CN(c1ccccc1)C2 (stereo not given) -0.4% [at 57.5 µM]
COc1ccc(CN2C[C@H](O)C[C@H]2c2nc(CS(=O)(=O)c3ccc(F)cc3)no2)cc1 2.79%
COc1ccccc1-c1ccnc(N[C@H]2CO[C@H]3[C@@H]2OC[C@@H]3NC(=O)Nc2cccc(C(F)(F)F)c2)n1 6.31%
NC(=O)C1CCN(CC[C@H]2CN(C(=O)Nc3ccc(OC(F)(F)F)cc3)CC[C@H]2CC(=O)O)CC1 -0.965%
O=C(N[C@@H]1CCN(C(=O)c2ccc3cc[nH]c3c2)C[C@H]1O)c1cnccn1 -3.34%
COCCNC(=O)[C@@H]1CCC[C@@H](NC(=O)c2ccc(Cl)cc2)CN(C)C(=O)C1 11.9% [at 57.5 µM]
COc1ccccc1C(O)c1nc(Nc2cccc(F)c2)n[nH]1 (stereo not given) 35.8% [at 57.5 µM]
COc1ccc(NC(=O)N2CCc3c(nc4cc(-c5ccccc5)[nH]n4c3=O)C2)c(OC)c1 -10%
CN(Cc1ccc(F)cc1)C(=O)C1CCCC1 -0.943% [at 57.5 µM]
COc1ccc(-c2ccnc(N[C@H]3CO[C@H]4[C@@H]3OC[C@@H]4NS(=O)(=O)c3ccc(C)cc3)n2)cc1 -6.55%
CCNC(=O)N1C[C@@H]2OCC(=O)N(C(C)C)[C@@H]2C1 -9.65% [at 76.7 µM]
Cn1ccnc1-c1ccc(N2CC[C@](C)(O)[C@@H](O)C2)nn1 -4.12%
O=C(N[C@@H]1CCOC[C@H]1OCCO)c1cc(-c2ccsc2)n[nH]1 1.53%
Cc1noc2nc3c(c(C(=O)N[C@H]4CC[C@H]4NC4CCCC4)c12)CCC3 -6.89%
Cc1ccsc1CN1CC(Oc2ccccc2C(=O)NC2CC2)C1 1.08%
CC(C)(C)c1ccc(-c2cc(C[C@H]3CNCC[C@H]3CC(=O)NCc3cccs3)no2)cc1 4.45%
Fc1ccc(-c2nnc3ccc(NCCc4ccccc4)nn23)nc1 -3.49% [at 57.5 µM]
COc1ccccc1-c1nnc([C@H]2CCN(C3CCN(C)CC3)C2)o1 -3.28% [at 57.5 µM]
Cc1ccc(CN2CC[C@H](c3nnc(-c4ccco4)o3)C2)o1 -6.62% [at 57.5 µM]
CNC(=O)c1cccc(-c2cnc(Nc3ccncc3)c3c2CCO3)c1 9.35% [at 57.5 µM]
O=C(c1cccs1)C1CCCN(C(=O)c2ccc3nccn3c2)C1 (stereo not given) 3.16%
CCN(CC)Cc1cnc2c(C(=O)NCCc3c[nH]c4ccccc34)cnn2c1 1.8%
CC1=C[C@@H](CNC(=O)Nc2ccc(Cl)cc2)[C@H](C(C)C)C[C@H]1CC(=O)N(C)Cc1cccnc1 4.87%
Oc1ccccc1-c1cc(-c2cccnc2)c2cncn2c1 -14.5% [at 76.7 µM]
CCOc1ccccc1NC(=O)Cn1ccn2nc(-c3ccccc3)c(CO)c2c1=O 0.938%
CC1(COc2cccnc2)COc2ccc(C(=O)NC3CCC(O)CC3)cc2N1 (stereo not given) 3.42% [at 57.5 µM]
O=C(O)c1cc(-c2cn[nH]c2)cc(S(=O)(=O)N2CCSCC2)c1 -0.448%
COc1ccc(C(=O)N[C@H]2C[C@H]3C(=O)Nc4cc(Cl)ccc4C(=O)N3C2)cc1 2.62% [at 57.5 µM]
NS(=O)(=O)c1ccc(-n2nc(C3CCOC3)nc2C2CCC2)cc1 (stereo not given) 2.93%

Two consecutive entries out of the list so far, quoted:
activity, negative = inhibition, inactive:
C[C@@H]1CN(C(=O)CCN(C)S(C)(=O)=O)C[C@@]1(O)C1CC1 1.3%
COc1ccc(NC(=O)C2(C)CCCc3cnc(Nc4cccnc4)nc32)cc1 (stereo not given) 5.21% [at 57.5 µM]
